Source: PubChem BioAssay
The inconclusive results got no clear call from the source; some entries with a clear call stand among them for comparison. Active and inactive are the calls of the source.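 The calls were made as follows, unless noted: active = thallium flux slope above the same plate's solvent-only control mean plus 3 SD; inconclusive = the two replicate wells disagree; inactive = no significant difference from solvent-only control wells.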

Sequences of proteins named here, by UniProt entry; tags and fusion partners are left off. A change or cut given only in a name is not applied to a line headed by its entry.
UniProt Q9H2X9: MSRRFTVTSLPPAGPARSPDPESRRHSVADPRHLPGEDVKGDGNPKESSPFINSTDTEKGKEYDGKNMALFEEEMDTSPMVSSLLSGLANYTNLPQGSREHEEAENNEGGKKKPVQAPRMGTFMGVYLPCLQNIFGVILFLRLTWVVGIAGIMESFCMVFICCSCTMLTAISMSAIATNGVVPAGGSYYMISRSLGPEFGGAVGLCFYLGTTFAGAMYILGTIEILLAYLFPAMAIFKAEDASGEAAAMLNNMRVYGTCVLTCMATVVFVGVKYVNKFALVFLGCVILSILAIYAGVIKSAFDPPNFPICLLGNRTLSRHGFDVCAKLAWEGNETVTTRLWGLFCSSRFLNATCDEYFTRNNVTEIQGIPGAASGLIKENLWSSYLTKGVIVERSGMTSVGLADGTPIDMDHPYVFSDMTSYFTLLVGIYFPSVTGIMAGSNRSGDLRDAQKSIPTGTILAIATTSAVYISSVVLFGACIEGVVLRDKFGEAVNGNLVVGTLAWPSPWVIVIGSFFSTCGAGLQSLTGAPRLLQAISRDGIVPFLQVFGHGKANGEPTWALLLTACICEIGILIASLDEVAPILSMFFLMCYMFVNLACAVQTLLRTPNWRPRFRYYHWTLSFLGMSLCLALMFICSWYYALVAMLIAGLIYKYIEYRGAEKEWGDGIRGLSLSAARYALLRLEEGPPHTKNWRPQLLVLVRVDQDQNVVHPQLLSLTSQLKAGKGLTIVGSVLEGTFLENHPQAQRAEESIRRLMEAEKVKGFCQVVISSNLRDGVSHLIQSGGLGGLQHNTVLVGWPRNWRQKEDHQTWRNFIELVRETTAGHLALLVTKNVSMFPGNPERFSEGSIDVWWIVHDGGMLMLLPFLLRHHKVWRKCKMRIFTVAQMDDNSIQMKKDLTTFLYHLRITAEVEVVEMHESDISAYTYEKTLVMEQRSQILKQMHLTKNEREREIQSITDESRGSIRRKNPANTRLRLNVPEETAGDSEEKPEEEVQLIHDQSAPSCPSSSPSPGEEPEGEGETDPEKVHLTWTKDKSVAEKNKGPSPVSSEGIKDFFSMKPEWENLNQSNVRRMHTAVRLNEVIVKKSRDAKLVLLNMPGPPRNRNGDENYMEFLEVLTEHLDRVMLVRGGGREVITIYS

Key:
[1] = biological target: Solute carrier family 12 member 5 (Homo sapiens) (UniProt Q9H2X9); test: retest of KCC2 transport modulators without sodium – cell-based, HEK293 KCC2, thallium flux, secondary assay, confirmation (AID 1713); conditions: FluoZin2 fluorescence, at 10 µM, stronger effect = higher value
Summary of the method: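 System: HEK/KCC2 cells | Compound: 10 µM single dose, 0.1% DMSO | Repeats: Two replicates | Benchmarks: Bumetanide 2 mM positive, DMSO negative | Times: Dye loading 48 min | Signal: FluoZin2 fluorescence, 480/540 nm, 1 Hz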

[2] = FluoZin2 fluorescence counter-screen of MLSMR hits on KCC2-expressing cells (AID 1714;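 active = thallium entry rate above the same plate's blocked-transporter control wells by more than 3 SD; inconclusive = the two repeat wells disagree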;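 also: raw slope of fluorescence over initial fluorescence between 10 and 20 s after thallium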); conditions: HEK293-KCC2 + bumetanide/ouabain, at 10 µM, stronger effect = higher value
Summary of the method: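 Test system: KCC2-expressing HEK cells; Reagent: thallium stimulus; Dosing: single compound dose, 10 µM final, 0.1% DMSO; Schedule: overnight culture 37 °C, dye loading 48 min; Detection: FluoZin2 thallium-flux fluorescence; Read-out basis: baseline-normalized fluorescence (F/F0) slope, 10–20 s post thallium.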

[3] = biological target: Solute carrier family 12 member 5 (Homo sapiens) (UniProt Q9H2X9); test: retest of KCC2 transport modulation, ouabain-free – cell-based, HEK293 KCC2, thallium flux, FluoZin2, secondary assay 2, confirmation (AID 1715;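 active = thallium flux slope more than 3 SD above or below the plate's solvent-only control mean, mostly below; inconclusive = the two repeat wells disagreed; inactive = no significant shift from solvent-only controls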;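 also: raw slope with 0.1% DMSO as baseline and bumetanide as block control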); conditions: HEK293-KCC2, thallium flux FluoZin2 fluorescence; at 10 µM; actives lie on both sides; F/F0 rise rate, 10–20 s post-thallium
[4] = compound effects on native HEK Tl+ uptake – HEK cells, counterscreen 1, counter-screen for KCC2 modulator project, confirmation (AID 1716;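 active = thallium flux rate significantly above the same plate's solvent-only control wells, beyond their mean plus 3 SD; inconclusive = the two replicate wells gave conflicting results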); conditions: HEK293 parental cells, thallium flux FluoZin2, ouabain; at 10 µM; baseline-ratio fluorescence slope, 10–20 s after thallium
[5] = biological target: Solute carrier family 12 member 5 (Homo sapiens) (UniProt Q9H2X9); test: modulation of KCC2 thallium flux in HEK cells – cell-based, ouabain, retest, confirmation (AID 1717;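 active = thallium flux slope beyond 3 SD from same-plate DMSO control mean in most replicates, usually higher, sometimes lower; inconclusive = repeat tests gave conflicting results; inactive = no significant difference from controls in most replicates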;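 also: slope of initial-normalized fluorescence between seconds 10 and 20 after thallium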); conditions: HEK293-KCC2, thallium flux FluoZin2 fluorescence, at 10 µM, bidirectional: low = inhibitor, high = activator
[6] = native HEK Tl+ uptake effects, second counter-screen – HEK cells, counterscreen 2, counter-screen for KCC2 modulator project, confirmation (AID 1718;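 active = thallium flux slope above the same plate's solvent-control mean plus 3 SD in both duplicate wells; inconclusive = duplicate wells that disagreed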;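 also: run without ouabain in cells lacking the KCC2 cotransporter; slope of fluorescence scaled to its starting value between 10 and 20 s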); conditions: HEK293 parental, thallium flux FluoZin-2 fluorescence slope; at 10 µM
Summary of the method: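 Assay system – untransfected HEK cells, thallium influx assay · Buffer or medium – HBSS with 20 mM HEPES for dye loading · Doses – single 10 µM final compound dose, 0.1% DMSO · Times – 37 °C overnight growth, 48 min FluoZin2-AM loading · Detection – FluoZin-2 fluorescence kinetics · Benchmarks – bumetanide 2 mM as positive control · Repeats – Per-replicate slope values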

Compound | normalised thallium flux (F/F0 slope) [1] | normalized thallium flux [2] | normalized thallium flux [3] | thallium flux rate (normalised fluorescence) [4] | raw Tl+ flux slope (below DMSO = inhibition, above = activation) [5] | thallium flux slope [6]
Cc1cc2nnc(SCC(=O)Nc3cc(S(=O)(=O)N4CCOCC4)ccc3Cl)n2c2ccccc12 | inactive: 0.00573 | inconclusive: 0.00341 | active: 0.0236 |  |  | 
Cc1ccccc1N/N=C/c1ccc(N2CCOCC2)cc1 | active: 0.0119 | active: 0.00874 |  |  |  | 
Cc1cc(C)n(C(=O)/C(C#N)=N/Nc2cc(Cl)cc(Cl)c2)n1 | inconclusive: 0.00627 | inconclusive: 0.00807 |  |  |  | 
O=C1c2cccc3c([N+](=O)[O-])ccc(c23)C(=O)N1Cc1cccnc1 | active: 0.00411 | inconclusive: 0.00382 |  |  |  | 
Cc1ccc(-n2ncc3c(SCC(=O)NNC(=O)c4ccco4)ncnc32)cc1 | inconclusive: 0.0197 | active: 0.0407 | inconclusive: 0.0394 |  |  | 
Cc1ccc2cccc(OCC(=O)Nc3ccc4c(c3)OCO4)c2n1 | inconclusive: 0.00635 |  |  |  |  | 
CCCn1c(N2CCC(Cc3ccccc3)CC2)nc2c1c(=O)[nH]c(=O)n2C | inactive: 0.00571 | inactive: 0.00402 | inconclusive: 0.0271 | inconclusive: 0.00647 |  | 
Cc1n[nH]c(C)c1S(=O)(=O)N(CC(=O)Nc1ccc2c(c1)OCCO2)c1ccc(C(C)C)cc1 | inconclusive: 0.00656 | inconclusive: 0.00938 | inactive: 0.0316 |  |  | 
O=C(O)/C=C/c1cn(Cc2ccccc2)nc1-c1ccccc1 | inactive: 0.00695 | inactive: 0.00443 | inconclusive: 0.0251 |  |  | 
Cc1onc(-c2c(F)cccc2Cl)c1C(=O)NCc1ccccn1 | inconclusive: 0.0113 | inconclusive: 0.00746 | inconclusive: 0.0284 |  | inactive: 0.0225 | 
O=C(CSc1nnc(SCc2cccc3ccccc23)s1)N/N=C/c1c[nH]c2ccccc12 | active: 0.00573 | active: 0.014 | active: 0.0237 | active: 0.0089 |  | inconclusive: 0.0102
C=CCNC(=S)NC(=O)c1ccc(C)c(Br)c1 | active: 0.0185 | active: 0.0925 |  | inconclusive: 0.0577 |  | 
CC(/C=C/c1ccco1)=N\NC(=O)c1cc(Cl)ccc1O | active: 0.0156 | active: 0.0259 |  | inconclusive: 0.0103 |  | 
COc1cc(C(=O)NCCc2cn3ccc(C)cc3n2)cc(OC)c1OC | inconclusive: 0.0109 | inconclusive: 0.00905 | inactive: 0.0335 | inactive: 0.00768 | inactive: 0.0226 | 
COc1ccc(Cl)cc1NC(=O)CC(C)=O | inconclusive: 0.0114 | inconclusive: 0.00707 | inactive: 0.0335 |  | inactive: 0.0228 | 
Cc1ccc(NC(=S)N/N=C/c2ccc([N+](=O)[O-])s2)cc1 | active: 0.0138 | active: 0.0467 | inactive: 0.0351 | inconclusive: 0.0435 | active: 0.0411 | 
O=C(O)C/C(=C\c1cccc(NC(=O)c2ccccc2Cl)c1)c1nc2ccccc2s1 | inactive: 0.00541 | inactive: 0.00507 | active: 0.0219 | inconclusive: 0.00667 |  | inactive: 0.0101
C=CCn1c(SCC(=O)Nc2cccc3ccccc23)nnc1-c1cnccn1 | inactive: 0.0083 | inconclusive: 0.00633 |  | inactive: 0.00685 | inactive: 0.0206 | 
O=C(COc1ccc2ccccc2c1)Nc1cccc(C(=O)Nc2ccccc2C(=O)O)c1 | inconclusive: 0.0047 | inactive: 0.00548 | active: 0.0239 | inconclusive: 0.00721 |  | inconclusive: 0.00949
Cn1c(C(=O)NCCCN2CCN(c3ccccc3F)CC2)cc2c(=O)n(C)c3ccccc3c21 | inactive: 0.00739 | inactive: 0.00455 | active: 0.0236 |  | inconclusive: 0.0164 | inactive: 0.011
COc1ccccc1N1CCN(C(=O)CSc2ncnc3c2cnn3-c2ccc(C)c(C)c2)CC1 | inactive: 0.00591 | inactive: 0.00504 | inactive: 0.029 | inconclusive: 0.00813 | inactive: 0.0176 | 
O=C(Cn1cnc2c(nnn2Cc2ccccc2F)c1=O)NCc1ccco1 | inactive: 0.0093 | inactive: 0.00658 | inconclusive: 0.0289 |  | active: 0.0176 | 
COc1cccc(/C=C2\SC(=S)NC2=O)c1OS(=O)(=O)c1ccc(NC(C)=O)cc1 | inconclusive: 0.0059 | inactive: 0.00589 | inconclusive: 0.0265 |  |  | inactive: 0.00943
Cc1c(NC2=C(Cl)C(=O)N(c3ccccc3)C2=O)c(=O)n(-c2ccccc2)n1C | inconclusive: 0.0114 | inactive: 0.00694 | inactive: 0.0348 |  | inactive: 0.0207 | 

Gathered by group, those above containing a COOH group (3)
Compound | normalised thallium flux (F/F0 slope) [1] | normalized thallium flux [2] | normalized thallium flux [3] | thallium flux rate (normalised fluorescence) [4] | raw Tl+ flux slope (below DMSO = inhibition, above = activation) [5] | thallium flux slope [6]
O=C(O)/C=C/c1cn(Cc2ccccc2)nc1-c1ccccc1 | inactive: 0.00695 | inactive: 0.00443 | inconclusive: 0.0251 |  |  | 
O=C(O)C/C(=C\c1cccc(NC(=O)c2ccccc2Cl)c1)c1nc2ccccc2s1 | inactive: 0.00541 | inactive: 0.00507 | active: 0.0219 | inconclusive: 0.00667 |  | inactive: 0.0101
O=C(COc1ccc2ccccc2c1)Nc1cccc(C(=O)Nc2ccccc2C(=O)O)c1 | inconclusive: 0.0047 | inactive: 0.00548 | active: 0.0239 | inconclusive: 0.00721 |  | inconclusive: 0.00949

Next part.

Compound | normalised thallium flux (F/F0 slope) [1] | normalized thallium flux [2] | normalized thallium flux [3] | thallium flux rate (normalised fluorescence) [4] | raw Tl+ flux slope (below DMSO = inhibition, above = activation) [5] | thallium flux slope [6]
C=CCn1c(O)c(N=NC(=S)Nc2cccc(OC)c2)c2ccccc21 | active: 0.0202 | active: 0.109 | inactive: 0.0308 |  |  | active: 0.0134
CC1(C)COCN1S(=O)(=O)c1ccc(C(=O)Nc2nnc(-c3ccc(Cl)s3)o2)cc1 | inconclusive: 0.0131 | active: 0.0397 |  | inconclusive: 0.0136 |  | 
CC1Cc2nc(SCC(=O)Nc3ccc4c(c3)OCO4)n(CCc3ccccc3)c(=O)c2S1 (stereo unspecified) | inactive: 0.00609 | inactive: 0.00562 |  | inconclusive: 0.00329 |  | 
O=[N+]([O-])c1ccc(NC(=S)NCCc2ccc(Cl)cc2)cc1 | inactive: 0.0171 | inactive: 0.00311 | active: 0.0256 | inconclusive: 0.00645 | inactive: 0.0143 | 
COc1cc(/C=N/N(C)c2ccccc2)ccc1O | inactive: 0.006 | inactive: 0.00467 | active: 0.0247 |  | inconclusive: 0.0153 | 
CN=c1scc(-c2ccccc2F)n1/N=C(\C)c1cccnc1 | inactive: 0.00702 | inactive: 0.00482 | inconclusive: 0.0261 |  | inconclusive: 0.0171 | inactive: 0.0109
CCCCCC(=O)Cc1cc(O)cc2c1C(=O)Oc1cc(O)c(C(=O)O)c(CCCCC)c1O2 | inconclusive: 0.00482 | inactive: 0.00459 |  | inactive: 0.00797 | inconclusive: 0.0157 | 
Cc1ccc(C)c(N(C(=O)CCC(=O)Nc2cc(C)on2)C(C(=O)NC2CCCC2)c2ccco2)c1 (stereo unspecified) | inconclusive: 0.0195 | inactive: 0.00426 | inconclusive: 0.0261 |  | inactive: 0.0152 | 
O=C(Nc1ccc(Cl)c(Cl)c1)Nc1ccccc1C(=O)O | inactive: 0.0145 | inconclusive: 0.00541 |  | inactive: 0.00653 | inactive: 0.013 | 
Nc1ccc(Br)c2c1C(=O)c1ccccc1C2=O | inconclusive: 0.00794 | inconclusive: 0.00491 |  | inconclusive: 0.0082 |  | 
COc1ccc(/C=C2\CCc3ccccc3C2=O)cc1CN1CCOCC1 | inconclusive: 0.00561 | inconclusive: 0.00566 | active: 0.0231 |  | inconclusive: 0.0167 | 
Cc1ccccc1-c1nc(CS(=O)(=O)CC(=O)NCc2ccccc2)c(C)o1 | inactive: 0.00525 | inactive: 0.0049 | inconclusive: 0.0275 |  | inconclusive: 0.0155 | 
Cc1nn(C)c(C)c1S(=O)(=O)N(CC(=O)N1CCc2ccccc2C1)c1ccc(C(C)C)cc1 | inconclusive: 0.00611 | inactive: 0.00494 |  | inconclusive: 0.00583 |  | 
O=C1/C(=C\c2ccco2)NC(=S)N1c1ccccc1 | active: 0.0146 | active: 0.0332 | inactive: 0.0341 |  | inconclusive: 0.0317 | 
NC(=S)NNC(=O)c1cccc(Cl)c1 | inconclusive: 0.019 | inconclusive: 0.0061 | inactive: 0.0316 |  | inactive: 0.0186 | inconclusive: 0.0123
COC(=O)c1cnc(NNC(=O)c2ccc([N+](=O)[O-])cc2)nc1C(F)(F)F | inactive: 0.00921 | active: 0.0109 |  | inconclusive: 0.0053 | inactive: 0.0212 | 
COc1ccc(-c2nn(-c3ccccc3)cc2/C=C(\CC(=O)O)c2nc3ccccc3s2)cc1OC | inactive: 0.007 | inactive: 0.006 | inactive: 0.0314 | inconclusive: 0.00648 | active: 0.0143 | 
Cc1sc(NC(=S)NC(=O)c2ccco2)c(C#N)c1C | inactive: 0.006 | active: 0.0223 | inconclusive: 0.0381 |  |  | active: 0.0192
CCN(CC)CCCNC(=O)c1cn(CCOC)c(=O)c2c1c1ccccc1n2C | inactive: 0.00944 | inconclusive: 0.00682 |  | inactive: 0.00751 | inactive: 0.0207 | 
COCCCNC(=O)C(C#N)c1nc2ccccc2nc1N1CCCC1 (stereo unspecified) | inconclusive: 0.00497 | active: -0.000272 | active: 0.0193 |  | active: 0.0125 | inconclusive: 0.00833
O=C(NCCN=C1NS(=O)(=O)c2ccccc21)c1ccncc1 | inactive: 0.0109 | inactive: 0.00582 |  | inconclusive: 0.00814 | inactive: 0.0222 | 
O=C(Cc1ccc(F)cc1)Oc1ccc(C(=S)N2CCCC2)cc1 | inconclusive: 0.00531 | inconclusive: 0.00544 |  | inconclusive: 0.0088 | active: 0.0126 | 
CCN(CC)CCCOc1ccc(C)cc1Br | inactive: 0.00693 | inactive: 0.00491 | inactive: 0.0273 | inconclusive: 0.00817 | inactive: 0.0182 | 
Cc1cc(CN(C)C(=O)c2cc(COc3ccc(F)cc3Cl)on2)n[nH]1 | active: 0.00605 | inconclusive: 0.00722 | inconclusive: 0.0297 |  | inactive: 0.0241 | 
